In PubChem BioAssay AID2685 (National Center for Advancing Translational Sciences (NCATS), 2010):
Where “and” joins values, the source holds several entries; their conditions need not be identical. Identical values can stand only once. Some of the results follow. Shown are side measurements of this screen, not its main read-out; they come without a call. Compounds called inactive in the main read-out are mostly missing here. Potencies come from curve fits of mixed quality, noted in brackets.

Test: qHTS Assay for Lipid Storage Modulators in Drosophila S3 Cells;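 for cell number change: cells counted by Cell Tracker Red CMTPX staining in the red channel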
Conditions: BODIPY lipid droplet fluorescence, 18-24 h; for cell number change: measured here: cell count max response, cells fed with added oleic acid
Procedure, shortened: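 Drosophila S3 cells got compounds at several concentrations plus oleic acid (400 uM solution). Laser-scanning cytometry with 488 nm excitation read lipid droplets at 500-530 nm and cells at 575-640 nm. Percent activity was relative to 20 uM Triacsin C.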

[1] = measured here: lipid fluorescence (Fed channel) AC50, cells fed with added oleic acid
[2] = measured here: cell number channel AC50, cells fed with added oleic acid

Row | Structure (SMILES) | cell number change | AC50 [1] | AC50 [2]
1 | CCOc1ccc(-c2noc(CCC(=O)NC3CCCCC3)n2)cc1OC | -2.61% | – | –
2 | COc1cc2c(cc1OC)C(c1ccc(Cl)cc1)CC(=O)N2 (stereo unspecified) | – | 2.06 µM [falling, partial curve, poor fit] | –
3 | N#CCC(=O)Nc1ccc(C(=O)OCC(=O)N(Cc2ccccc2)C2CCS(=O)(=O)C2)cc1 (stereo unspecified) | 14.4% | 5.17 µM [rising, single point] | –
4 | CCCCCc1c(O)nc(SCCN(CC)CC)[nH]c1=O | -42.9% | 29.1 µM [falling, single point] | –
5 | O=C(N/N=C1\CC2CC=CC12)c1ccc(COc2ccccc2)cc1 (stereo unspecified) | 39% | – | 32.6 µM [rising, single point]
6 | COc1ccc(C2C=C(C)Nc3nc4ccccc4n32)cc1 (stereo unspecified) | -12.1% | – | –
7 | Cc1cccc(NS(=O)(=O)c2ccc(C(=O)NCC(c3ccccc3)N(C)C)cc2)c1C (stereo unspecified) | -13.3% | – | 3.66 µM [rising, single point]
8 | Cc1cc(C(=O)CN2C(=O)C(=O)N(C3CCCC3)C2=O)c(C)n1CCc1ccccc1 | – | – | 0.206 µM [rising, full curve, poor fit]
9 | O=C1C=C(c2cccc(Cl)c2O)C[C@@H](c2ccc(F)cc2)C1 | -23.1% | 0.058 µM [falling, full curve, poor fit] | 1.3 µM [falling, partial curve]
10 | CC1=C(C(=O)OC(C)C)C(c2c[nH]c3ccccc23)n2ncnc2N1 (stereo unspecified) | -12.5% | 23.1 µM [falling, partial curve] | –
11 | O=C(CCS(=O)(=O)c1ccccc1)N1CCN(c2ccccc2F)CC1 | 19.9% | 29.1 µM [rising, single point] | –
12 | O=C(NC1CCC(C(=O)O)CC1)OCc1ccccc1 (stereo unspecified) | -32.1% and -10.7% | 29.1 µM [falling, single point] | 0.731 µM [falling, full curve]
13 | NC(=O)C1CCCN(C(=O)Nc2cccc3ccccc23)C1 (stereo unspecified) | 14.3% | 2.59 µM [rising, full curve, poor fit] | –
14 | Cc1ccc(OCC(=O)Nc2ccc3c(c2)nc2n3CCOC2)cc1 | 40.6% | 0.58 µM [falling, single point] | 29.1 µM [rising, single point]
15 | CC1=C(C(=O)NC2CC(C)(C)Cc3c2cnn3-c2ccc(C)cc2)OCCO1 (stereo unspecified) | -6.65% | – | –
16 | Cc1ccc(-n2c(SCc3nc4ccccc4[nH]3)nnc2-c2ccncc2)cc1 | -4.98% | 6.51 µM [rising, partial curve] | –
17 | Cc1oc2c(c1C(=O)N1CCC(C)CC1)C(=O)c1ccccc1C2=O | – | 0.0651 µM [falling, full curve, poor fit] | –
18 | NC(=S)N=Nc1c(O)n(Cc2ccc(Br)cc2)c2ccccc12 | -28.1% | 29.1 µM [falling, single point] | –
19 | CCSc1nc(=S)n(-c2ccccc2)c(C)c1C(C)=O | 34.7% | – | 29.1 µM [rising, single point]
20 | CCN(CC)S(=O)(=O)c1cc(NC(=O)CCCOc2ccc(C(C)=O)cc2)ccc1C | 1.58% | – | –

Row | Structure (SMILES) | cell number change | AC50 [1] | AC50 [2]
21 | O=C(CNC(=O)c1ccccc1)NCc1nc2ccccc2[nH]1 | 26.7% | 16.4 µM [rising, partial curve] | –
22 | CC(C)NS(=O)(=O)c1ccc(NCCCn2ccnc2)c([N+](=O)[O-])c1 | 3.85% | – | –
23 | O=C(NCCC1CCCCN1S(=O)(=O)c1ccc(Cl)cc1)C(=O)NCc1ccncc1 (stereo unspecified) | -37.9% | – | 11.6 µM [falling, partial curve]
24 | CCOc1ccc(-c2[nH]ncc2-c2ccc(OC)c(OC)c2)c(O)c1 | -47.6% | 29.1 µM [falling, single point] | 23.1 µM [falling, partial curve, poor fit]
25 | CC1(C)Cc2ccccc2-c2nc3ccccc3c(=O)n21 | -34.8% | 29.1 µM [falling, single point] | 16.4 µM [falling, partial curve, poor fit]
26 | Cc1cc(C)c2cc(C#N)c(N3CCCC3)nc2c1 | -3% | – | –
27 | Cc1ccccc1Cc1n[nH]c(=S)n1N | -0.326% | 25.9 µM [rising, single point] | –
28 | Cc1ccc2nc(-c3cccc(-c4cccc(Cl)c4)c3)c(NCc3ccccc3)n2c1 | -35.3% | – | 14.6 µM [falling, partial curve, poor fit]
29 | O=C(COC(=O)/C=C/c1ccccc1)NCc1cccs1 | 25.6% | 0.651 µM [rising, single point] | –
30 | Cc1ccc(N(CCC(=O)NC(C)(C)C)S(=O)(=O)c2ccc(C)cc2)cc1 | -25.8% | – | 0.082 µM [falling, full curve, poor fit]
31 | CCN(CC(=O)NCc1ccc2c(c1)OCO2)S(=O)(=O)c1ccc(F)cc1 | -8.82% | – | –
32 | CCOC(=O)CC1=C(C(=O)OCC)C(c2cccnc2)C(C#N)=C(N)O1 (stereo unspecified) | – | 0.366 µM [rising, full curve] | 0.326 µM [rising, full curve]
33 | C[C@@]12CCC=C[C@H]1[C@H](c1ccc3ccccc3c1Br)N(Cc1ccccc1)C2=O | 6.51% | 10.3 µM [rising, single point] | –
34 | Cc1cc2c(cc1C)CSC(c1ccccc1O)SC2 | -82.2% | 14.6 µM [falling, partial curve] | 14.6 µM [falling, partial curve]
35 | COc1cccc(CCNC(=O)CCCC(=O)c2ccccc2)c1 | 3.97% | 0.651 µM [falling, single point] | –
36 | Cc1ccc(C(=O)Nc2ccc(CN3CCS(=O)(=O)CC3)cc2)cc1C | -47% | 13 µM [falling, partial curve, poor fit] | 23.1 µM [falling, partial curve, poor fit]
37 | O=C(COC(=O)c1cc([N+](=O)[O-])ccc1Cl)NC1CCCC1 | -27% | 29.1 µM [falling, single point] | –
38 | CCCC(=O)Oc1ccccc1C1SCc2cc(C)c(C)cc2CS1 | -32.2% | 0.092 µM [falling, full curve, poor fit] | 0.058 µM [falling, full curve, poor fit]
39 | CC(=O)OCCNC(=O)Cn1cnc2c1c(=O)n(C)c(=O)n2C | -12.4% | 5.17 µM [falling, partial curve, poor fit] | –
40 | Cc1snc(SCc2c(F)cccc2Cl)c1C#N | – | 29.1 µM [rising, single point] | –

Row | Structure (SMILES) | cell number change | AC50 [1] | AC50 [2]
41 | CCCN(CC(=O)Nc1ccc(C(N)=O)cc1)CC(=O)Nc1ccccc1C | 6.92% | – | 0.259 µM [falling, partial curve, poor fit]
42 | Oc1ccc(N2CCN(Cc3cc4c(cc3Br)OCCO4)CC2)cc1 | 2.63% | 0.1 µM [falling, full curve, poor fit] | –
43 | CCOC(=O)Nc1ccc2c(c1)N(C(=O)CCN1CCN3CCCC3C1)c1ccccc1CC2 (stereo unspecified) | 21.8% | 0.0058 µM [falling, full curve, poor fit] | –
44 | COc1ccccc1N1CCN(CC(=O)c2c(C)[nH]c3ccccc23)CC1 | 2.2% | 2.31 µM [rising, full curve, poor fit] | –
45 | O=c1[nH]c(SCc2n[nH]c(=S)n2-c2ccccc2)nc2sc3c(c12)CCC3 | 43.4% | 29.1 µM [rising, single point] | 13 µM [rising, single point]
46 | Cc1ccc(C)n1-n1cnc2sc(-c3ccccc3)cc2c1=O | – | 5.8 µM [rising, single point] | 3.66 µM [rising, single point]
47 | CC(C)(C)C1CCC(C(=O)NCCc2ccc(S(N)(=O)=O)cc2)CC1 (stereo unspecified) | -19% | – | 0.0058 µM [falling, full curve, poor fit]
48 | CCN(CC)CC(=O)Nc1ccc(C)cc1Br | -15.9% | 14.6 µM [rising, partial curve, poor fit] | –
49 | COc1cc(C(=O)NCCC(=O)NCCCN2CCCCC2)cc(OC)c1OC | -64.7% | – | 1.84 µM [falling, partial curve]
50 | Cc1ccccc1C1CC(c2cccs2)=NN1S(C)(=O)=O (stereo unspecified) | 125% | – | –
51 | CC1=NOC(=O)/C1=C/c1ccc(O)cc1 | -16.8% | 0.461 µM [falling, partial curve, poor fit] | –
52 | CCCCn1c(N)c(N(CC(C)C)C(=O)c2ccc(C)o2)c(=O)[nH]c1=O | 4.55% | 14.6 µM [rising, single point] | –
53 | COc1ccc(C=NCC2COc3ccccc3O2)cc1OC (stereo unspecified) | 37.6% | 5.8 µM [falling, full curve] | 3.66 µM [rising, partial curve]
54 | Cc1cccc(C)c1OCc1cc(C(=O)NCC2COCCO2)no1 (stereo unspecified) | 22.9% | 3.66 µM [rising, full curve, poor fit] | –
55 | O=C(NCCc1ccc(Cl)cc1)c1ccc(Cn2c(=O)[nH]c3ccccc3c2=O)cc1 | 6.36% | 6.51 µM [falling, single point] | –
56 | COc1ccccc1C(=O)C1CCCN(C(=O)C2=CC(=O)CC(C)(C)O2)C1 (stereo unspecified) | -11.5% | – | –
57 | CCC(=O)c1cn(CC(=O)Nc2cc(C)ccc2C)c2ccccc12 | -10.6% | – | –
58 | COc1cc(/C=C(/C#N)c2nc3ccccc3[nH]2)ccc1OCC(=O)Nc1ccccc1C | 177% | 25.9 µM [rising, partial curve] | –
59 | CS(=O)(=O)c1nc(S(=O)(=O)c2ccc(Cl)cc2)c(N2CCOCC2)s1 | -22.4% | 29.1 µM [falling, single point] | –
60 | COc1ccc(NC(=O)COC(=O)CCCC2=NS(=O)(=O)c3ccccc3N2)cc1Cl | 20.2% | 29.1 µM [rising, single point] | –
